From patent US5290789A, “Penta and tetrasubstituted piperidines and compositions and method of treating psychosis” (Sterling Wintrop Inc., priority 1992, dated 1994)
At least one compound was matched to its structure with a doubt left.

Target: sigma receptors
Experiment: sigma receptor binding, [^3 H]di(2-tolyl)guanidine (DTG), guinea pig brain membranes
Settings: mean or mean ±SEM of at least two separate determinations performed in triplicate; 25° C., 90 min
Description: Brain tissue was prepared from male Hartley guinea pigs (Hazelton Labs, Denver, Pa.) which were anesthetized with CO2 and sacrificed by decapitation. All animal care and use procedures were in accord with the "Guide for the Care and Use of Laboratory Animals" (NIH Publ. No. 86-23, 1985). Homogenization was performed in 10 volumes (wt/vol) of 0.32 M sucrose with a Brinkmann Polytron at setting 5, 30 sec. The homogenate was centrifuged at 900×g for 10 min at 4° C., and the supernatant was collected and centrifuged at 22,000×g for 20 min at 4° C. The pellet was resuspended in 10 volumes of Tris-HCl buffer (50 mm, pH 7.4), incubated at 37° C. for 30 min, and centrifuged at 22,000×g for 20 min at 4° C. […]
Following addition of scintillation cocktail, samples were allowed to equilibrate for at least 4 hr. The amount of bound radioactivity was determined by liquid scintillation spectrometry using a Beckman LS 5000 TA liquid scintillation counter with an efficiency for tritium of approximately 60%. […]
Scatchard parameters and inhibition constants (Ki values) for the binding of test compounds were also calculated using the EBDA/LIGAND program (McPherson, J. Pharmacol. Meth. 1985, 14, 213-228), purchased from Elsevier/Biosoft, Inc. The Ki values are expressed as the mean or the mean ±SEM of at least two separate determinations performed in triplicate.

## COCCC[C@]1(C)[C@H](C)CCN(C)[C@H]1C (relative stereo) [Example 13, 3-(3-methoxypropyl)-1,2,3,4-tetramethylpiperidine]
  Ki: 11.4 µM
